Experimental data: PMC2688274
Results are given in words; binding and its absence hold for the method and conditions named. For some of these results: Binding seen in cells or lysates may run through a third protein. Some results given as binding are weak or reduced against the parent protein; the word gives no strength.

Chains of the proteins cited; added tags and fusions are not shown. Lines headed by an entry give the natural chain unless they say otherwise; changes in a name come on top.
UniProt O82794: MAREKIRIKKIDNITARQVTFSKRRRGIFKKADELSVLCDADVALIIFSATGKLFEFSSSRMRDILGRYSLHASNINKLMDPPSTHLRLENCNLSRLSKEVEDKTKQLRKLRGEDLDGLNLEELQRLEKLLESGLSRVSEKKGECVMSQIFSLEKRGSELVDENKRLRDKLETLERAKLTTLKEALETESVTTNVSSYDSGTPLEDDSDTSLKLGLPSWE
UniProt O64645: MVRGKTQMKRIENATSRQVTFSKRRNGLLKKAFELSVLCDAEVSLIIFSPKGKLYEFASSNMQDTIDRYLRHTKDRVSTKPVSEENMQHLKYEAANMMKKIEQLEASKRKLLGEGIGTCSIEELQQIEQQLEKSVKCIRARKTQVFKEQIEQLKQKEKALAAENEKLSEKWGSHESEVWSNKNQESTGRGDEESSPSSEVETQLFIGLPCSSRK
UniProt P17839: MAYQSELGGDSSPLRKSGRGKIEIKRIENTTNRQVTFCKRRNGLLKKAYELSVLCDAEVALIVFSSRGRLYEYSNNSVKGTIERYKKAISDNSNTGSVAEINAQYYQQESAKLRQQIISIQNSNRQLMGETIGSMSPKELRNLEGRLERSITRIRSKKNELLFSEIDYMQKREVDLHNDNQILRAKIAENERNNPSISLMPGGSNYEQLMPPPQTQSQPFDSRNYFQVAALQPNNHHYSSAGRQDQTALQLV
UniProt O82743: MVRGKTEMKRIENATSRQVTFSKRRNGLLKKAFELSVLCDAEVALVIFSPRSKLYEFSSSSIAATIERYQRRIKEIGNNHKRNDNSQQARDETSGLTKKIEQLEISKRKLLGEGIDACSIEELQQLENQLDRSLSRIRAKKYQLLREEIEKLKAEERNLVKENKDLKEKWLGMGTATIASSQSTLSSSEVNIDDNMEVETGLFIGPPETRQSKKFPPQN
UniProt Q9FIS1: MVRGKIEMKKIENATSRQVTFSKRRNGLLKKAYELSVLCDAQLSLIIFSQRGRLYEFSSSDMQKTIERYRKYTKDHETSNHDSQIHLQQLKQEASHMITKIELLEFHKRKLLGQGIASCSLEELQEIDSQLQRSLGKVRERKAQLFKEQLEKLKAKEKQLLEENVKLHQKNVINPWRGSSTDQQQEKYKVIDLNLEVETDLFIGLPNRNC
UniProt P35631: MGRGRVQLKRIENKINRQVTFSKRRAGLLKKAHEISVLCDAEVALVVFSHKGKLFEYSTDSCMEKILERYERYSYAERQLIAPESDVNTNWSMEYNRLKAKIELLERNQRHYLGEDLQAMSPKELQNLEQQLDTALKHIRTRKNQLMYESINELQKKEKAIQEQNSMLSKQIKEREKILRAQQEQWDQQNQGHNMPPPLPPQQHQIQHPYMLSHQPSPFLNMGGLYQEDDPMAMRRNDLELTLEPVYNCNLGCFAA
UniProt Q38838: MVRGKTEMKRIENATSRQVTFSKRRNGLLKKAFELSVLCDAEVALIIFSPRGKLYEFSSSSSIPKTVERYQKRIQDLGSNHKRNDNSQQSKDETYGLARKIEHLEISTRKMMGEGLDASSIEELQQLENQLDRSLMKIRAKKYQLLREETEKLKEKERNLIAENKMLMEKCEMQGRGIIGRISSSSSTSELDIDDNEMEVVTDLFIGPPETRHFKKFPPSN
UniProt Q38840: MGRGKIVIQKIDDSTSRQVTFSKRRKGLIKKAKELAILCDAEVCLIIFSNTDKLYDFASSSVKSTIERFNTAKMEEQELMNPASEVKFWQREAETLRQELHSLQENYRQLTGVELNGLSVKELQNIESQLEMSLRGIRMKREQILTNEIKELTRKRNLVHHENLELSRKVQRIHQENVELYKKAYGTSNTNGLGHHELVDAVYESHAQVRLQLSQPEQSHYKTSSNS
UniProt Q9SZJ6: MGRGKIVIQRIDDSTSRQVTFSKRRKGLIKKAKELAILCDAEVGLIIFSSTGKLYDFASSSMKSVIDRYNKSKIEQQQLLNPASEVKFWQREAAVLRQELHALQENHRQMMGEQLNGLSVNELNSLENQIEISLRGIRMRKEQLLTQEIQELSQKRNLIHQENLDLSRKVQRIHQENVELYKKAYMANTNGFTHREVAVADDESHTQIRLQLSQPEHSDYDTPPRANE

Experiments:
[1] = target: SEP3ΔC1 (…3 lacking the last 80 amino acids of the carboxyl terminus) (Arabidopsis thaliana) (UniProt O22456); test: two-hybrid; yeast; truncated SEP3 proteins fused to GAL4-BD tested for dimerisation with AG
[2] = target: SEP3ΔC2 (…3 lacking 67 amino acids at its carboxyl end) (Arabidopsis thaliana) (UniProt O22456); test: as above
[3] = target: AGL24 with SOC1 (partners in the yeast three-hybrid complexes) (Arabidopsis thaliana) (UniProt O82794+O64645); test: yeast three-hybrid; yeast PJ69-4; dimer clones (one partner fused to GAL4-AD, the other to a nuclear localization signal only, pARC352) mated with single proteins fused to GAL4-BD; growth on -L -W -A -H with 1, 5 or 10 mM 3-AT at 20°C for 7 days, and LacZ assay
[4] = target: SEP3-CFP / SEP3-YFP (Arabidopsis thaliana) (UniProt O22456); test: FRET or BRET; FRET-FLIM in Arabidopsis leaf protoplasts; carboxy-terminal CFP (donor) and YFP (acceptor) fusions; donor lifetime measured on the central part of the nucleus, at least ten cells a combination in three experiments
[5] = target: AG with SEP3ΔC2 (dimer in the yeast three-hybrid test) (Arabidopsis thaliana) (UniProt P17839+O22456); test: yeast three-hybrid; yeast PJ69-4; dimer clones (one partner fused to GAL4-AD, the other to a nuclear localization signal only, pARC352) mated with single proteins fused to GAL4-BD; growth on -L -W -A -H with 1, 5 or 10 mM 3-AT at 20°C for 7 days, and LacZ assay
[6] = target: AG with SEP3ΔC1 (dimer in the yeast three-hybrid test) (Arabidopsis thaliana) (UniProt P17839+O22456); test: as above

Substance | binding [3] | further results
AGAMOUS (AG) (from UniProt P17839 1-252) | – | binding [1]: binds; binding [2]: binds
AGL19 (from UniProt O82743 1-219) | binds | –
AGL42 (from UniProt Q9FIS1 1-210) | binds | –
AP1-CFP (from UniProt P35631 1-256) | – | binding [4]: binds
… (STK) (from UniProt Q38836 1-230) | – | binding [5]: binds; binding [6]: no binding

Further lines, with some results ahead:

binding [3] | Substance | further results
binds | AGL14 (from UniProt Q38838 1-221) | –
binds | AGL17 (from UniProt Q38840 1-227) | –
binds | AGL21 (from UniProt Q9SZJ6 1-228) | –
